Experimental data from PubChem BioAssay AID2685 (National Center for Advancing Translational Sciences (NCATS), 2010).
The whole screen tested about 320,000 compounds, of which about 2,100 (0.66%) were called active. The shares of active, inactive and inconclusive entries below differ from those in the screen. Calls follow the shape of the dose curve; as a rule, active = well fitted inhibition curve with a large enough effect in the signal ratio, with a control signal flat (not every such curve was filed as active); inconclusive = small, poorly fitted or top-dose-only effect, or effect the other way, or a change in a side signal; inactive = flat fitted curve, though single readings scatter; the % refers to the signal ratio. Where the call is inconclusive, the potency comes from a doubtful curve fit.

Experiment: qHTS Assay for Lipid Storage Modulators in Drosophila S3 Cells
Conditions: BODIPY lipid droplet fluorescence, 18-24 h, cells fed with added oleic acid; lipid storage change, negative = inhibition: at 46.1 µM (top of the series) unless noted
Method in brief: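 Laser-scanning cytometry quantifies lipid droplet accumulation (500–530 nm total intensity; droplet/cell object ratio) in oleic acid-fed (400 uM added) Drosophila S3 cells treated with a concentration series. 20 uM Triacsin C defined 100% inhibition.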
% is scaled to controls: 0 for no effect and ±100 for the full control effect; potency is read from the fitted curve at half-maximal effect.

Structure (SMILES) | lipid storage change, negative = inhibition | Potency
CCCC(=O)N1CCN(c2nnc(-c3ccccc3)c3ccccc23)CC1 | inconclusive: -13.4% | 
COCCNc1nnc(SCC(=O)NNC(=O)c2ccccc2)s1 | inconclusive: 24.7% | 
COc1cc(C)c(C(C)C)cc1S(=O)(=O)N1CCN(C)CC1 | inconclusive: -5.32% | 
Cc1ccccc1NC(=O)Cn1c(=O)n(C)c2ccccc21 | inconclusive: 0.937% | 
O=C(O)/C=C/C(=O)NC1CCCCC1 | inconclusive: -8.81% | 
CS(=O)(=O)Nc1ccc(C(=O)NCC2CCCO2)cc1 (stereo unspecified) | inconclusive: -10.5% | 
CCOC(=O)C1=C(CC)Nc2ccccc2N/C1=N\S(=O)(=O)c1ccccc1F |  | inconclusive: 2.06 µM [activator, partial curve, poor fit]
Cn1c(SCC(=O)c2ccc3c(c2)NC(=O)CO3)nc2ccccc21 | inconclusive: -25.4% | 
Cc1noc(C)c1COc1ccc(C(=O)N2CCN(S(=O)(=O)c3ccccc3)CC2)cc1 | inconclusive: 2.79% | 
COc1ccccc1NC(=S)NC(=O)CC(C)C | inconclusive: -24.5% | 
Cc1cc(C(=O)NCc2ccco2)sc1C | inconclusive: -2.97% | 
O=C(COC(=O)C1CCN(C(=O)Nc2ccccc2)CC1)NCC(F)(F)F |  | inconclusive: 0.82 µM [cytotoxic, full curve]
Cc1cccc(Cn2c(=O)n(Cc3ccco3)c(=O)c3ccccc32)c1 | inconclusive: 13.7% | 
COc1ccc(N2CCN(C(=O)COC(=O)CCOc3cc(C)ccc3C)CC2)cc1 |  | inconclusive: 0.184 µM [falling, full curve, poor fit]
Cc1ccccc1OCC(O)Cn1c(=N)n(CCN2CCOCC2)c2ccccc21 (stereo unspecified) |  | inconclusive: 0.231 µM [falling, full curve, poor fit]
CCOC(=O)c1sc(Nc2ccc(C)cc2C)nc1C |  | inconclusive: 2.59 µM [activator, partial curve]
O=C(N/N=C1/CC2C=CCC12)c1ccc(Br)o1 (stereo unspecified) | inconclusive: 19% | 
CCOc1ccc(S(=O)(=O)N2CCOCC2)cc1NC(=O)CN1C(=O)NC2(CCCC2)C1=O | inconclusive: 17.1% | 
CCC(NC(=O)c1ccc2nc(Cc3ccc(OC)cc3)oc2c1)c1ccncc1 (stereo unspecified) |  | inconclusive: 5.8 µM [falling, single point]
O=S(=O)(Nc1cccc2ccccc12)c1ccccc1F | inconclusive: 62.2% | 
CCOc1ccccc1N(C(=O)Cn1nnnc1-c1ccc(C)o1)C(CC)C(=O)NC(C)(C)C (stereo unspecified) |  | inconclusive: 29.1 µM [falling, single point]
CC[C@H](C)/C=C(C)/C=C/C1=CC2=CC(=O)[C@]3(C)OC(=O)[C@@H](C(C)=O)[C@@H]3C2=CO1 | inconclusive: -29.5% | 
CCOC(=O)c1ccc(N(C(=O)CNC(=O)c2ccco2)C(C(=O)NCC2CCCO2)c2ccc(OC)c(OC)c2)cc1 (stereo unspecified) | inconclusive: 83.7% | 
Cc1cccc(C)c1NC(=O)CCCSc1nc2ccccc2s1 | inconclusive: 25.6% | 
O=S(=O)(Nc1cccc2cn[nH]c12)c1ccc(F)cc1 |  | inconclusive: 0.0231 µM [activator, full curve, poor fit]
COc1ccccc1C(=O)NNC(=O)C(=O)N1CCCCC1 | inconclusive: -45.2% | 

Structure (SMILES) | lipid storage change, negative = inhibition | Potency
COc1ccc(NC(=O)CCCNC(=O)Cn2cnc3sc(C)c(C)c3c2=O)cc1Cl |  | inconclusive: 2.91 µM [activator, full curve]
c1ccc(OCc2noc(CN3CC[C@@H]4CCCC[C@H]4C3)n2)cc1 | inconclusive: -3.93% | 
CC(C)CC(NS(=O)(=O)c1cccc(C(=O)O)c1)C(=O)O (stereo unspecified) | inconclusive: -49.7% | 
CN(C)c1ccc(-c2nn3c(-c4ccc(Cl)cc4)nnc3s2)cc1 | inconclusive: 17.1% | 
c1ccc2c(c1)OCCc1c-2[nH]c2ccccc12 | inconclusive: 34% | 
COc1cc(OC)c(NC(=O)CCNC(=O)Cn2ccc3ccccc3c2=O)cc1Cl | inconclusive: -21% | 
COc1ccc(N2C(=O)CSC2c2cccc(OC)c2OC)cc1 (stereo unspecified) | inconclusive: -15.5% | 
CC(C)c1onc(C(=O)NC2CCCC2)c1[N+](=O)[O-] | inconclusive: 9.8% | 
O=C(Cn1nnc(-c2ccccc2)n1)N/N=C/c1cc([N+](=O)[O-])c(Cl)cc1Cl | inconclusive: -10.7% | 
Cc1ccc(-c2csc(NC(=S)NC(=O)c3cccs3)n2)cc1 |  | inconclusive: 1.3 µM [activator, single point]
CCOc1ccc(N2CC(C(=O)Nc3ccncc3)CC2=O)cc1 (stereo unspecified) |  | inconclusive: 6.51 µM [activator, single point]
c1ccc(-c2noc(CC3CCCCC3)n2)cc1 | inconclusive: -8.03% | 
O=C(CN1C(=O)C2CC=CCC2C1=O)OCC(=O)c1ccc(Cl)c([N+](=O)[O-])c1 (stereo unspecified) |  | inconclusive: 14.6 µM [falling, single point]
CS(=O)(=O)N1CCC(NC(=O)Nc2ccc(OC(F)(F)F)cc2)CC1 |  | inconclusive: 1.16 µM [rising, single point]
O=C(Cc1ccccc1)Nc1ccc2[nH]ncc2c1 |  | inconclusive: 0.0052 µM [activator, full curve, poor fit]
COc1ccccc1CN1CCNC(=O)C1CC(=O)N(C)Cc1nc(C)cs1 (stereo unspecified) | inconclusive: -32.7% | 
C=CCc1cc(/C=C2/NC(=O)N(CC(=O)OC)C2=O)cc(OC)c1O | inconclusive: 20.6% | 
CCCn1cc(S(=O)(=O)c2ccccc2)c(=O)c2cc(F)c(N3CCN(C)CC3)cc21 | inconclusive: -20.4% | 
Nc1c(C(=O)NCc2ccco2)nnn1CC(=O)Nc1ccc2c(c1)OCO2 | inconclusive: -59.4% | 
CCC(C)(C)NC(=O)C(c1ccc(OC)cc1)N(C(=O)CCC(=O)Nc1cc(C)on1)c1ccccc1F (stereo unspecified) |  | inconclusive: 0.82 µM [activator, single point]
Cc1ccc(-n2c(SCC3CNC(=O)O3)nnc2-c2ccccc2)cc1C (stereo unspecified) | inconclusive: 19.5% | 
CCOc1cc(C2C(C(=O)OC)=CN(Cc3ccc(Cl)cc3)C=C2C(=O)OC)ccc1O | inconclusive: -31.2% | 
CCCCN(C(C)=O)C1CC(=O)N(c2ccc(OCCC)cc2)C1=O (stereo unspecified) | inconclusive: 14.5% | 
O=C(c1cc2c(s1)-c1ccccc1OC2)N1CCN(c2ccccn2)CC1 | inconclusive: 21.5% | 
COc1cc2c(cc1OC)CN(C(=O)c1cc(=O)c3ccccc3o1)CC2 | inconclusive: -5.79% | 
CCOC(=O)C1CCN(S(=O)(=O)c2cccc(-c3cn4cccnc4n3)c2)CC1 |  | inconclusive: 14.6 µM [activator, partial curve]

Structure (SMILES) | lipid storage change, negative = inhibition | Potency
Cc1ccc(C)c(S(=O)(=O)NCc2ccc(C(=O)N3CCN(C)CC3)cc2)c1 |  | inconclusive: 6.51 µM [falling, single point]
COc1ccc(C(=O)NC2CC(C)(C)Cc3c2cnn3-c2ccccc2C)o1 (stereo unspecified) | inconclusive: -61.6% | 
O=C(Nc1ccccc1Sc1ccccc1)c1ccc(F)cc1 |  | inconclusive: 14.6 µM [activator, partial curve, poor fit]
O=C(O)c1cccnc1NC1CCCC1 |  | active: 20.6 µM
CCCCCOCC(O)CCC(=O)NN (stereo unspecified) | inactive | 
CCN(CC)c1ccc2c(-c3ccc(S(=O)(=O)O)cc3S(=O)(=O)[O-])c3ccc(=[N+](CC)CC)cc-3oc2c1 | inconclusive: -117% | 
CC(C)CC(OC(=O)c1cccs1)C(=O)NCC1CCCO1 (stereo unspecified) | inconclusive: -42% | 
O=C(CC1CC2CCC1C2)NCCc1ccc(Cl)cc1 (stereo unspecified) | inconclusive: -7.74% | 
COc1ccc2[nH]cc(CCNC(=O)C3CCCCC3)c2c1 | inactive | 
Cc1ccc(OCCC(=O)OCC(=O)N2CCN(S(=O)(=O)c3ccc(C)cc3)CC2)cc1 |  | inconclusive: 5.8 µM [activator, single point]
Cc1ccc(C(=O)N2N=C(c3ccccc3O)CC2c2ccccc2)cc1 (stereo unspecified) | inconclusive: 61.4% | 
CN(CC(=O)Nc1c(Cl)cccc1Cl)C(=O)c1ccc2nc[nH]c2c1 | inconclusive: 11.7% | 
Cc1cc(C)c2nc(SCC#N)cc(C)c2c1 | inconclusive: 86.8% | 
CCC1CCCCN1C(=O)CCS(=O)(=O)c1ccccc1 (stereo unspecified) | inconclusive: 31.8% | 
N#Cc1ccccc1OCC(=O)NC(=O)NCc1ccco1 |  | inconclusive: 9.2 µM [activator, partial curve]
COc1cc(/C=C/C(=O)OCC(=O)NCc2ccccc2OC)ccc1O |  | inconclusive: 9.2 µM [activator, partial curve]
CCc1ccc(CNC(=O)c2ccc3c(c2)NC(=O)C(N2CCOCC2)S3)cc1 (stereo unspecified) |  | inconclusive: 29.1 µM [falling, single point]
c1ccc(NCc2ccncc2)cc1 |  | inconclusive: 16.4 µM [activator, single point]
Cc1noc(C)c1S(=O)(=O)Nc1ccc(C(=O)Nc2ccc(OC(F)(F)F)cc2)cc1 | inconclusive: 25.9% | 
CCc1cc2c(=O)[nH]c(Cc3ccccc3)nc2s1 |  | inconclusive: 16.4 µM [rising, partial curve]
Cc1ccc(-c2nn3c(-c4cccc(Cl)c4)nnc3s2)cc1 |  | inconclusive: 0.651 µM [activator, full curve, poor fit]
CC(=C/c1ccccc1)/C=N/NC(=O)c1nnn(-c2nonc2N)c1CN1CCC(C)CC1 |  | inconclusive: 0.13 µM [falling, full curve, poor fit]
O=C(CNC(=O)c1cc(=O)[nH]c2ccccc12)Nc1ccc(F)c(F)c1 | inconclusive: -33.8% | 
Cc1nnc(NC(=O)CSc2nnc(Cc3ccccc3)n2Cc2ccccc2)s1 | inconclusive: -49.5% | 

Four structures from above, sorted by heavy-atom count, rising:
Structure (SMILES) | lipid storage change, negative = inhibition | Potency
Cc1cc(C)c2nc(SCC#N)cc(C)c2c1 | inconclusive: 86.8% | 
Cc1ccccc1NC(=O)Cn1c(=O)n(C)c2ccccc21 | inconclusive: 0.937% | 
COCCNc1nnc(SCC(=O)NNC(=O)c2ccccc2)s1 | inconclusive: 24.7% | 
CC[C@H](C)/C=C(C)/C=C/C1=CC2=CC(=O)[C@]3(C)OC(=O)[C@@H](C(C)=O)[C@@H]3C2=CO1 | inconclusive: -29.5% | 
